According to the supplement of paper PMC10338343:
± gives the standard deviation. The entries are a selection whose mix differs from that of the whole data set. The uncertainty is large for many entries. This is one part of the list.

Legend:
[1] = tested on: MILI (PIWIL2) piRISC loaded with L1MC piRNA (26 nt); experiment: pre-steady-state target cleavage rate (min^-1); higher = faster piRNA-guided slicing of the target; settings: guide: L1MC piRNA 5'p-UAACUAAAUACUAUGCAAGCUGUAGG
In short: (§1)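 Active affinity-purified piRISC (1 nM) loaded with one synthetic guide was mixed with a transcribed, DNA-blocked target RNA library (0.1 nM), with or without 500 nM GTSF1 partner protein, in HEPES–potassium acetate buffer at 33 °C for 0–8 or 0–960 min. Uncleaved targets were sequenced, normalised to depth and to weakly complementary targets, and pooled across three trials, with k3 capped at 0.0001 min^-1. The pre-steady-state cleavage rate was determined with a burst-and-steady-state fit.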

[2] = tested on: EfPiwi piRISC loaded with L1MC piRNA (26 nt); experiment: pre-steady-state target cleavage rate (min^-1); guide: L1MC piRNA 5'p-UAACUAAAUACUAUGCAAGCUGUAGG; MIWI and MILI are mouse PIWI proteins and EfPiwi is from a freshwater sponge; tags in brackets are library labels; higher = faster piRNA-guided slicing of the target
In short: as §1

[3] = auxiliary factor: none (no GTSF1)
[4] = auxiliary factor: 500 nM Ephydatia muelleri Gtsf1
[5] = auxiliary factor: none (no Gtsf1)
[6] = auxiliary factor: 500 nM mouse GTSF1

Sequence	pre-steady-state target cleavage rate [1, 3]	pre-steady-state target cleavage rate [2, 4]	pre-steady-state target cleavage rate [2, 5]	pre-steady-state target cleavage rate [1, 6]
UCCUGGAACAGCUUGCAUAGUAUUUCGUUA	0.00149 ± 0.004	0.0025 ± 0.0013	0.000269 ± 0.027	–
UCCUGGUACAGCUUGCAUAGAAUUUACUUA	0.00217 ± 0.0062	0.00101 ± 0.0035	< 0.0001	–
UCCUGCUACUGCUUGCAUAGUAUUUAGAUA	0.00107 ± 0.0045	0.00383 ± 0.0018	0.000339 ± 0.013	–
UCCUGGAUGUCGAAGCAUAGAUUUUAGUUA	–	0.000158 ± 0.027	0.000441 ± 0.011	0.000742 ± 0.013
UCCUGGAACAGCUUGCAUGGUAUUUAGUUA	–	0.0141 ± 0.0045	0.00234 ± 0.0048	0.283 ± 0.022
UCCUGGAUGUGCUUGGCAUAGUAUUUAGUUA	0.00258 ± 0.0036	0.00458 ± 0.0029	0.000215 ± 0.035	–
UCCUGGUACAGGUUGCAUAGUAUAUAGUUA	–	0.00251 ± 0.0033	0.000882 ± 0.01	0.42 ± 0.089
UCCUGGAUCAGGUUGCAUAGUAUUUACUUA	0.00257 ± 0.0029	0.000855 ± 0.0047	0.000212 ± 0.045	–
UCCUGGAUGAGCUUGCAUAGUAUAAUCAAA	0.000818 ± 0.0078	0.00224 ± 0.0046	0.000371 ± 0.024	–
UCCUGGAUGAGCUUGCAUAGUAUAUAGUAA	0.00245 ± 0.0038	0.00247 ± 0.0032	0.000447 ± 0.022	–
UCCUGGUACAGCUUGCUUAGUAUUUUGUUA	0.00209 ± 0.004	0.00295 ± 0.0034	0.000639 ± 0.016	–
UCCUGGAACAGCUUGCAUACUAAUUAGUUA	0.00267 ± 0.003	0.00305 ± 0.0029	0.000434 ± 0.018	–
UCCUCCUACAGCUUGCAUAGAAUUUAGUUA	0.00257 ± 0.0032	0.0078 ± 0.0023	0.00149 ± 0.0052	–
UCCUGGAACAGCUUGCAUAGUAAUUUGUUA	0.00222 ± 0.0035	0.0032 ± 0.002	0.000276 ± 0.03	–
UCCUGGAACAGCUUGCAUAGUAUUUCAGUUA	0.00116 ± 0.0061	0.00308 ± 0.0026	0.000466 ± 0.017	–
UCCUGGAAGAGCUUGCAUAGAAUUUAGUUA	0.00185 ± 0.0039	0.00403 ± 0.0018	0.001 ± 0.011	–
UCCUGCUACACCUUGCAUAGUAUUUACUUA	0.0014 ± 0.006	0.00306 ± 0.003	0.00062 ± 0.013	–
UCCUGGAACAGCUUGCAUAGUAUUUAGUCUA	0.00289 ± 0.003	0.00195 ± 0.0029	0.000424 ± 0.018	0.055 ± 0.015
UCCUGGAUGAGCUUGCAUAGUAUUAAGUAA	0.00166 ± 0.0054	0.00133 ± 0.0035	0.000451 ± 0.017	–
UCCUGGAUGUCGUUGCAUAGUAAAAUCAAA [g9:g18:cont:t1A]	0.00024 ± 0.019	0.000146 ± 0.017	0.000109 ± 0.066	–
UCCUCCUACAGCUUGCAUUCUAUUUAGUUA	0.0021 ± 0.0027	0.00259 ± 0.0028	0.000508 ± 0.0088	–
UCCUGGAUGUGCUUGCAUAGUAUUUUGUAA	0.000851 ± 0.0087	0.000824 ± 0.0056	0.000331 ± 0.019	–
UCCUGGAUGAGCUUGCAUACUAUUUAGAUA	0.000667 ± 0.0096	0.00231 ± 0.0021	0.000699 ± 0.01	–

Sequence	pre-steady-state target cleavage rate [1, 3]	pre-steady-state target cleavage rate [2, 4]	pre-steady-state target cleavage rate [2, 5]	pre-steady-state target cleavage rate [1, 6]
UCCUGGAUGUCGAUGCAUACAAUUUAGUUA	0.00122 ± 0.005	0.000208 ± 0.012	0.00041 ± 0.015	–
UCCUGGUACAGCUUGCAUACUAUUAAGUUA	0.00154 ± 0.0045	0.00282 ± 0.0022	0.00051 ± 0.018	–
UCCUGGAUGAGCUUGCAUAGAAUUUAGAUA	0.000544 ± 0.011	0.00158 ± 0.0024	0.000436 ± 0.013	–
UCCUGGUACAGCUUGCAUAGUAUUUACUAA	0.00132 ± 0.0054	0.00229 ± 0.003	0.000208 ± 0.038	–
UCCUGGAACAGCUUCCUUAGUAUUUAGUUA	0.00562 ± 0.002	0.00362 ± 0.002	0.00056 ± 0.009	0.214 ± 0.018
UCCUCCUACAGCUUGCAAUCUAUUUAGUUA	0.00183 ± 0.0026	0.00376 ± 0.0036	0.000898 ± 0.0056	0.0266 ± 0.0058
UCCUGCUACAGCUUGCAUAGUAUUUAGCUUA	0.00134 ± 0.0056	0.00522 ± 0.0019	0.00057 ± 0.013	0.161 ± 0.037
UCCUGGAUGAGCUUGCAUAGUUAAUAGUUA	0.00242 ± 0.0028	0.00122 ± 0.0049	0.000601 ± 0.012	0.00524 ± 0.004
UCCUGGUACAGCUUGCAUAGUAAUUUAGUUA	0.0129 ± 0.0045	0.00647 ± 0.0026	0.00122 ± 0.011	0.186 ± 0.025
UCCUGGAUGAGCUUGCAUAGUAUUCUAGUUA	0.00277 ± 0.0032	0.00246 ± 0.0037	0.000533 ± 0.021	0.165 ± 0.029
UCCUCCAACAGCUUGCAUAGUAUAUAGUUA	0.0056 ± 0.0022	0.00628 ± 0.0027	0.00107 ± 0.0064	0.234 ± 0.027
UCCUGGAUGUGCUUGCAUAGUAUUUAGCUA	0.000401 ± 0.016	0.00363 ± 0.0021	0.000457 ± 0.019	0.00234 ± 0.0063
UCCUGGAUGAGCUUGCAUAGUAAUUACUUA	0.00126 ± 0.005	0.000892 ± 0.0047	0.00065 ± 0.012	0.00616 ± 0.004
UCCUGGAUGAGCUUGCAUUGUAUUUAGAUA	0.00133 ± 0.005	0.00248 ± 0.0021	0.000448 ± 0.018	0.156 ± 0.038
UCCUGCUACAGCAUGCAUAGUAUUAAGUUA	0.00346 ± 0.0032	0.00828 ± 0.0024	0.0022 ± 0.0065	0.331 ± 0.043
UCCUGGAUGUGCUUGCAUAGAAUUUAGUUA	0.00245 ± 0.0026	0.00167 ± 0.0021	0.000669 ± 0.013	0.0203 ± 0.0071
UCCUGGUACAGCUUGGUUAGUAUUUAGUAA	0.01 ± 0.0031	0.00341 ± 0.004	0.000553 ± 0.018	0.159 ± 0.038
UCCUGCUACAGCUAGCAUACUAUUUAGUUA	0.0037 ± 0.0024	0.0063 ± 0.0019	0.000906 ± 0.0081	0.112 ± 0.018
UCCUGGAACAGCUUGCAUAGAAUUUAGUUA	0.00299 ± 0.0027	0.0051 ± 0.0017	0.00151 ± 0.0048	0.0554 ± 0.01
UCCUGGAUGUGCUUGGAUAGUAAUUAGUUA	0.00472 ± 0.0026	0.000558 ± 0.0083	0.000578 ± 0.015	0.0687 ± 0.014
UCCUGGAUGAGCUUGCAUAGAAUUUAGUUA	0.00227 ± 0.0025	0.00142 ± 0.0033	0.000788 ± 0.0093	0.0653 ± 0.017
UCCUGCUACAGCUAGCAUAGUAUUUAGUAA	0.00281 ± 0.0031	0.00623 ± 0.002	0.000619 ± 0.011	0.212 ± 0.019
UCCUGGAACAGCUUGCAAGUAUUUAGUUA	0.00614 ± 0.0021	0.00284 ± 0.0019	0.00033 ± 0.022	0.141 ± 0.013

Exported bar-delimited: entries from further up.
Sequence | pre-steady-state target cleavage rate [1, 3] | pre-steady-state target cleavage rate [2, 4] | pre-steady-state target cleavage rate [2, 5] | pre-steady-state target cleavage rate [1, 6]
UCCUGGUACAGCUUGCAUACUAUUAAGUUA | 0.00154 ± 0.0045 | 0.00282 ± 0.0022 | 0.00051 ± 0.018 | –
UCCUGGAUGAGCUUGCAUAGAAUUUAGAUA | 0.000544 ± 0.011 | 0.00158 ± 0.0024 | 0.000436 ± 0.013 | –
UCCUGCUACAGCUUGCAUAGUAUUUAGCUUA | 0.00134 ± 0.0056 | 0.00522 ± 0.0019 | 0.00057 ± 0.013 | 0.161 ± 0.037
UCCUGGAUGAGCUUGCAUAGUUAAUAGUUA | 0.00242 ± 0.0028 | 0.00122 ± 0.0049 | 0.000601 ± 0.012 | 0.00524 ± 0.004
UCCUGGUACAGCUUGCAUAGUAAUUUAGUUA | 0.0129 ± 0.0045 | 0.00647 ± 0.0026 | 0.00122 ± 0.011 | 0.186 ± 0.025
UCCUCCAACAGCUUGCAUAGUAUAUAGUUA | 0.0056 ± 0.0022 | 0.00628 ± 0.0027 | 0.00107 ± 0.0064 | 0.234 ± 0.027
UCCUGGAUGUGCUUGCAUAGAAUUUAGUUA | 0.00245 ± 0.0026 | 0.00167 ± 0.0021 | 0.000669 ± 0.013 | 0.0203 ± 0.0071
UCCUGGAUGUGCUUGGAUAGUAAUUAGUUA | 0.00472 ± 0.0026 | 0.000558 ± 0.0083 | 0.000578 ± 0.015 | 0.0687 ± 0.014
UCCUGCUACAGCUAGCAUAGUAUUUAGUAA | 0.00281 ± 0.0031 | 0.00623 ± 0.002 | 0.000619 ± 0.011 | 0.212 ± 0.019
